Laboratory results: PubChem BioAssay AID504808 (Drosophila RNAi Screening Center, 2011)

Aim: 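Genes whose loss lifts activity of an E2F-responsive reporter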 (primary screen)
Cells: Drosophila S2 cells
Reagents: long dsRNA against Drosophila genes
Measurement: 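Dual luciferase plate measurements; E2F-specific signal taken as firefly over Renilla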
Reading the numbers: E2F firefly: higher = more E2F reporter activity; Renilla normaliser: higher = more normaliser reporter signal
Active means: 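Called active if the normalised E2F reporter went up by over 50%; the cutoff is arbitrary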
The screen tested about 21,000 reagents; below is an unselected part of those with a known target gene and a result. In the full data, 18 (0.084%) were called active. 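Raw counts without plate normalisation, one of two replicates; the ratio scores behind the calls were not deposited.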 Entries without a mark were called inactive. A plus sign joins genes that one reagent is predicted to hit. No sequences are given here. Not given: the amount of reagent, the time to read-out.

| gene | amplicon | E2F firefly, rep 1 | Renilla normaliser, rep 1 |
| --- | --- | --- | --- |
| rumpel | DRSC18436 | 1.15e5 | 6026 |
| CG12682 | DRSC17873 | 1.04e5 | 5300 |
| dind | DRSC16294 | 72000 | 4031 |
| CG14383 | DRSC14841 | 1.09e5 | 5365 |
| Rad17 | DRSC16811 | 1.16e5 | 6252 |
| CG10588 | DRSC11628 | 1.28e5 | 7483 |
| Rnmt | DRSC03558 | 1.07e5 | 4547 |
| BI-1 | DRSC10782 | 70127 | 3320 |
| Nedd4 | DRSC11234 | 1.72e5 | 7818 |
| Ir7g | DRSC18008 | 37303 | 3064 |
| CG14950 (retired record) | DRSC08409 | 1.01e5 | 4148 |
| hng2 | DRSC16412 | 1.21e5 | 6946 |
| Trp1 | DRSC03465 | 1.64e5 | 5622 |
| CG12860 | DRSC06200 | 1.06e5 | 4164 |
| CG34323 | DRSC18916 | 80302 | 2886 |
| gig | DRSC11351 | 63653 | 3452 |
| CG30339 | DRSC05168 | 1.41e5 | 5662 |
| CG3448 | DRSC10368 | 97572 | 3441 |
| wor | DRSC03637 | 1.14e5 | 4725 |
| ac | DRSC18734 | 43508 | 3796 |
| Gel | DRSC12350 | 70318 | 3756 |
| Bcat | DRSC19756 | 1.40e5 | 7397 |
| Gmd | DRSC03119 | 94380 | 4153 |
| CG9427 | DRSC16490 | 70757 | 3139 |
| GckIII | DRSC15729 | 93543 | 6189 |
| CG14492 | DRSC06463 | 1.54e5 | 5058 |
| CG32551 | DRSC19259 | 67241 | 2491 |
| Cnx99A + Cnx14D | DRSC16610 | 1.48e5 | 6221 |
| RhoU | DRSC17635 | 83974 | 2865 |
| RhoU | DRSC17803 | 1.17e5 | 2620 |
| RhoU | DRSC17804 | 68489 | 4624 |
| lectin-24A | DRSC00604 | 1.51e5 | 5198 |
| CG7653 | DRSC01886 | 98667 | 3775 |

Part of the list above in another layout.
RhoU [DRSC17803] | E2F firefly, rep 1 = 1.17e5; Renilla normaliser, rep 1 = 2620
RhoU [DRSC17804] | E2F firefly, rep 1 = 68489; Renilla normaliser, rep 1 = 4624
lectin-24A [DRSC00604] | E2F firefly, rep 1 = 1.51e5; Renilla normaliser, rep 1 = 5198
CG7653 [DRSC01886] | E2F firefly, rep 1 = 98667; Renilla normaliser, rep 1 = 3775

The list goes on.
| gene | amplicon | E2F firefly, rep 1 | Renilla normaliser, rep 1 |
| --- | --- | --- | --- |
| CR11700 (retired record) | DRSC17794 | 36051 | 5735 |
| CG42471 | DRSC01210 | 1.36e5 | 7058 |
| Cys | DRSC16637 | 1.14e5 | 6247 |
| CG13295 | DRSC09969 | 79266 | 3410 |
| Sclp | DRSC19851 | 8230 | 760 |
| Sam-S | DRSC00758 | 1.01e5 | 3398 |
| Ccp84Ac | DRSC12588 | 1.33e5 | 6054 |
| CG14285 | DRSC14766 | 1.57e5 | 8670 |
| Su(var)205 | DRSC03446 | 82570 | 3503 |
| Gr32a | DRSC02400 | 1.58e5 | 5762 |
| CG33281 | DRSC00421 | 1.44e5 | 5456 |
| Grl36b | DRSC01627 | 1.48e5 | 5969 |
| Rev1 | DRSC08264 | 79445 | 3800 |
| CG13108 | DRSC02206 | 1.33e5 | 5089 |
| FucT6 | DRSC19848 | 7251 | 760 |
| CG31121 | DRSC15361 | 1.19e5 | 5248 |
| CG31121 | DRSC15363 | 1.07e5 | 5843 |
| CG5447 | DRSC15801 | 99152 | 5495 |
| CG16989 | DRSC18535 | 79857 | 4542 |
| snz | DRSC17969 | 55724 | 3631 |
| AP-1gamma | DRSC18433 | 1.01e5 | 6747 |
| ARY (retired record) | DRSC20867 | 73504 | 2371 |
| CG7889 | DRSC20066 | 1.72e5 | 5420 |
| Drsl6 | DRSC08161 | 1.07e5 | 3867 |
